The experiment addresses T1, Sema3B-GFP (endogenous Sema3B fused at its N terminus to enhanced green fluorescent protein, Sema3B-GFP knock-in mouse) (mouse (endogenous in the Sema3B-GFP knock-in line)) (UniProt Q62177).
T1 sequence: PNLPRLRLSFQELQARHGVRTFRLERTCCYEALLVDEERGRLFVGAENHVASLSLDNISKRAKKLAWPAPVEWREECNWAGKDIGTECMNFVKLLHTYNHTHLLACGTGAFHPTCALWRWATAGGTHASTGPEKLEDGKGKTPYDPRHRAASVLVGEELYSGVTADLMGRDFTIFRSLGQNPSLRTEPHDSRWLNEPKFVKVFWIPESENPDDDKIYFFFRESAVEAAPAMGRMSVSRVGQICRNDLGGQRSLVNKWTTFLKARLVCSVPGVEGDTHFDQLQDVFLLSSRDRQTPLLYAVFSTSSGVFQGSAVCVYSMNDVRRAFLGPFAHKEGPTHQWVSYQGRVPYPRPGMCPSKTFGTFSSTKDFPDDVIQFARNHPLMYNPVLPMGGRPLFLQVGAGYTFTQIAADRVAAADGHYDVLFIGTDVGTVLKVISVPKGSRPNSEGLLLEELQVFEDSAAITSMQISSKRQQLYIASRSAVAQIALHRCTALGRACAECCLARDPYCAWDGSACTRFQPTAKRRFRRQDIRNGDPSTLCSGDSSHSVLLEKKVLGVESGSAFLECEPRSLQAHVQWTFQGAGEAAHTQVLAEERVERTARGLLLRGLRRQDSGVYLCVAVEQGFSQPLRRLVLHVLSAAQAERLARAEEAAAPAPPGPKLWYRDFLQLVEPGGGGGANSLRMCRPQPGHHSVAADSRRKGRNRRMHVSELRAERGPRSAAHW
The experiment is described as follows: co-IP; CSF of E13.5 Sema3B-GFP ki embryos (WT CSF as control of specificity); rabbit anti-GFP overnight at 4°C, magnetic protein A beads 15 min at RT; Western blot against Nrp1 or Nrp2.

No constants are given. Whether binding was seen depends on the method and setting. In cells and extracts the contact can be indirect. Some entries that bind do so weakly or less than the wild type. Tags and fused reporters may be left off the sequences shown.

This note sets out measurements from article PMC9674300.

B1: Nrp2, soluble forms in the embryonic cerebrospinal fluid (receptor, UniProt O35375 21-864)
chain: RSQQDPPCGGRLNSKDAGYITSPGYPQDYPSHQNCEWIVYAPEPNQKIVLNFNPHFEIEKHDCKYDFIEIRDGDSESADLLGKHCGNIAPPTIISSGSVLYIKFTSDYARQGAGFSLRYEIFKTGSEDCSKNFTSPNGTIESPGFPEKYPHNLDCTFTILAKPRMEIILQFLTFDLEHDPLQVGEGDCKYDWLDIWDGIPHVGPLIGKYCGTKTPSKLRSSTGILSLTFHTDMAVAKDGFSARYYLIHQEPPENFQCNVPLGMESGRIANEQISASSTFSDGRWTPQQSRLHGDDNGWTPNLDSNKEYLQVDLRFLTMLTAIATQGAISRETQKGYYVKSYKLEVSTNGEDWMVYRHGKNHKIFQANNDATEVVLNKLHMPLLTRFIRIRPQTWHLGIALRLELFGCRVTDAPCSNMLGMLSGLIADTQISASSTREYLWSPSAARLVSSRSGWFPRNPQAQPGEEWLQVDLGTPKTVKGVIIQGARGGDSITAVEARAFVRKFKVSYSLNGKDWEYIQDPRTQQTKLFEGNMHYDTPDIRRFDPVPAQYVRVYPERWSPAGIGMRLEVLGCDWTDSKPTVETLGPTVKSEETTTPYPMDEDATECGENCSFEDDKDLQLPSGFNCNFDFPEETCGWVYDHAKWLRSTWISSANPNDRTFPDDKNFLKLQSDGRREGQYGRLISPPVHLPRSPVCMEFQYQAMGGHGVALQVVREASQESKLLWVIREDQGSEWKHGRIILPSYDMEYQIVFEGVIGKGRSGEISIDDIRISTDVPLENCMEPISAFAGEDFKVDIPETHGGEGYEDEIDDEYEGDWSNSSSSTSGAGDPSSGKEKSWLYTLDP
Turning to B1, the binding entry is “binds”.

B2: Nrp1, soluble forms in the embryonic cerebrospinal fluid (receptor, UniProt P97333 22-856)
chain: FRSDKCGGTIKIENPGYLTSPGYPHSYHPSEKCEWLIQAPEPYQRIMINFNPHFDLEDRDCKYDYVEVIDGENEGGRLWGKFCGKIAPSPVVSSGPFLFIKFVSDYETHGAGFSIRYEIFKRGPECSQNYTAPTGVIKSPGFPEKYPNSLECTYIIFAPKMSEIILEFESFDLEQDSNPPGGMFCRYDRLEIWDGFPEVGPHIGRYCGQKTPGRIRSSSGVLSMVFYTDSAIAKEGFSANYSVLQSSISEDFKCMEALGMESGEIHSDQITASSQYGTNWSVERSRLNYPENGWTPGEDSYKEWIQVDLGLLRFVTAVGTQGAISKETKKKYYVKTYRVDISSNGEDWISLKEGNKAIIFQGNTNPTDVVLGVFSKPLITRFVRIKPVSWETGISMRFEVYGCKITDYPCSGMLGMVSGLISDSQITASNQADRNWMPENIRLVTSRTGWALPPSPHPYTNEWLQVDLGDEKIVRGVIIQGGKHRENKVFMRKFKIAYSNNGSDWKTIMDDSKRKAKSFEGNNNYDTPELRTFSPLSTRFIRIYPERATHSGLGLRMELLGCEVEAPTAGPTTPNGNPVDECDDDQANCHSGTGDDFQLTGGTTVLATEKPTIIDSTIQSEFPTYGFNCEFGWGSHKTFCHWEHDSHAQLRWSVLTSKTGPIQDHTGDGNFIYSQADENQKGKVARLVSPVVYSQSSAHCMTFWYHMSGSHVGTLRVKLRYQKPEEYDQLVWMVVGHQGDHWKEGRVLLHKSLKLYQVIFEGEIGKGNLGGIAVDDISINNHISQEDCAKPTDLDKKNTEIKIDETGSTPGYEGEGEGDKNISRKPGNVLKTLDP
In the case of B2, the binding result is listed as “binds weakly”.
